Laboratory results as given in the supplement of paper PMC6078165.
The reference is the same well before dosing, and untreated signal decays as well.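 Labels refer to human fibroblasts, largely primary: uterine (C12385, HUF), lung (H6013), bone (Hs27A), adrenal (HADF), skin (WS1), plus mammary HMF and breast cancer-associated Hs343T. Cancer lines are basal-like or mesenchymal-like triple-negative breast cancer. The paper counts as hits responses shifting over 3x the replicate standard deviation. The tissue of the other fibroblasts is not given here.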

Tested on: MDAMB468
Assay: relative JC-1 red fluorescence (viability) vs pre-drug, coculture with fibroblast (fraction); higher = more viable cancer cells
Protocol: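 JC-1 labelled TNBC cells cocultured 1:1 (1,500 cells each) with CellTrace Violet stained primary or stromal fibroblasts in 384-well plates in FluoroBrite medium, treated with one of 42 anticancer drugs at 0.1, 1, 10 or 100 uM. JC-1 red fluorescence (mitochondrial integrity in cancer cells only) was read by plate reader every 8 h for 72 h. Values are normalised to each well's pre-drug value. The stock of one drug was tenfold lower, so its dose labels may be too high.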

N#Cc1ccc(C(c2ccc(C#N)cc2)n2cncn2)cc1 [Letrozole]
relative JC-1 red fluorescence
Settings	8 h	16 h	24 h	32 h	40 h	48 h	56 h	64 h	72 h
0.1 µM, coculture fibroblast: C12385	0.866	0.784	0.726	0.6625	0.605	0.59467	0.5541	0.519	0.515
0.1 µM, coculture fibroblast: H6013	0.8273	0.80383	0.7475	0.7278	0.6837	0.6862	0.6675	0.6508	0.604
0.1 µM, coculture fibroblast: H6019	0.8217	0.8101	0.7931	0.755	0.71	0.693	0.646	0.608	0.589
0.1 µM, coculture fibroblast: H6076	0.939	0.969	0.8677	0.8415	0.772	0.7444	0.6903	0.6645	0.678
0.1 µM, coculture fibroblast: H6231	0.8435	0.969	0.818	0.818	0.756	0.739	0.693	0.661	0.654
0.1 µM, coculture fibroblast: HADF	0.886	0.824	0.7875	0.7778	0.7135	0.7157	0.678	0.674	0.641
0.1 µM, coculture fibroblast: HCFa	0.851	0.829	0.771	0.733	0.667	0.656	0.609	0.567	0.527
0.1 µM, coculture fibroblast: HCPF	0.8932	0.944	0.8629	0.8409	0.777	0.7509	0.69	0.66901	0.6447
0.1 µM, coculture fibroblast: HHSteC	0.878	0.831	0.7808	0.744	0.685	0.683	0.618	0.593	0.543
0.1 µM, coculture fibroblast: HMF	0.871	0.962	0.878	0.849	0.78	0.748	0.697	0.681	0.658
0.1 µM, coculture fibroblast: HPFa	0.935	0.8656	0.806	0.746	0.698	0.685	0.617	0.595	0.528
0.1 µM, coculture fibroblast: HUF	0.9045	0.808	0.7498	0.688	0.625	0.604	0.559	0.536	0.516
0.1 µM, coculture fibroblast: Hs5	0.781	0.959	0.88	0.847	0.776	0.734	0.689	0.653	0.653
0.1 µM, coculture fibroblast: Hs27A	0.85682	0.8104	0.758	0.754	0.694	0.696	0.653	0.632	0.601
0.1 µM, coculture fibroblast: Hs343T	0.906	0.977	0.917	0.8868	0.8095	0.7825	0.724	0.7122	0.6844
0.1 µM, coculture fibroblast: WS1	0.821	0.7648	0.703	0.632	0.573	0.539	0.5044	0.4727	0.4617
1 µM, coculture fibroblast: C12385	0.8733	0.7998	0.776	0.724	0.6949	0.68	0.646	0.623	0.611
1 µM, coculture fibroblast: H6013	0.894	0.854	0.816	0.812	0.802	0.815	0.797	0.787	0.736
1 µM, coculture fibroblast: H6019	0.811	0.766	0.755	0.709	0.67	0.6572	0.6101	0.5814	0.554
1 µM, coculture fibroblast: H6076	0.932	0.929	0.862	0.8608	0.798	0.791	0.744	0.724	0.776
1 µM, coculture fibroblast: H6231	0.822	0.93883	0.835	0.7916	0.749	0.725	0.671	0.6356	0.626
1 µM, coculture fibroblast: HADF	0.913	0.833	0.82	0.815	0.767	0.758	0.722	0.701	0.65
1 µM, coculture fibroblast: HCFa	0.8646	0.797	0.735	0.707	0.619	0.608	0.556	0.509	0.457
1 µM, coculture fibroblast: HCPF	0.879	0.958	0.865	0.853	0.797	0.768	0.72	0.71	0.701
1 µM, coculture fibroblast: HHSteC	0.958	0.949	0.923	0.912	0.881	0.892	0.833	0.812	0.752
1 µM, coculture fibroblast: HMF	0.842	0.955	0.865	0.834	0.771	0.7377	0.6783	0.65119	0.626
1 µM, coculture fibroblast: HPFa	0.951	0.92844	0.8745	0.81	0.781	0.779	0.711	0.67	0.588
1 µM, coculture fibroblast: HUF	0.898	0.7986	0.7315	0.6526	0.597	0.561	0.5217	0.493	0.467
1 µM, coculture fibroblast: Hs5	0.768	0.9782	0.90751	0.874	0.8087	0.7758	0.739	0.7015	0.714
1 µM, coculture fibroblast: Hs27A	0.846	0.798	0.781	0.793	0.74	0.732	0.695	0.67	0.62
1 µM, coculture fibroblast: Hs343T	0.88	0.947	0.866	0.851	0.785	0.779	0.726	0.709	0.687
1 µM, coculture fibroblast: WS1	0.8709	0.801	0.75	0.69	0.662	0.63	0.592	0.568	0.556
10 µM, coculture fibroblast: C12385	0.8405	0.816	0.784	0.739	0.701	0.692	0.647	0.615	0.608
10 µM, coculture fibroblast: H6013	0.847	0.834	0.771	0.744	0.685	0.682	0.639	0.624	0.576
10 µM, coculture fibroblast: H6019	0.847	0.818	0.795	0.753	0.705	0.695	0.641	0.608	0.592
10 µM, coculture fibroblast: H6076	0.9066	0.961	0.869	0.777	0.785	0.832	0.812	0.79	0.7035
10 µM, coculture fibroblast: H6231	0.851	0.93	0.878	0.855	0.799	0.777	0.729	0.698	0.683
10 µM, coculture fibroblast: HADF	0.858	0.818	0.754	0.728	0.649	0.638	0.582	0.561	0.523
10 µM, coculture fibroblast: HCFa	0.867	0.8535	0.786	0.7502	0.6891	0.677	0.621	0.587	0.547
10 µM, coculture fibroblast: HCPF	0.853	0.944	0.87	0.868	0.79	0.7669	0.716	0.697	0.684
10 µM, coculture fibroblast: HHSteC	0.878	0.849	0.801	0.759	0.71	0.7	0.647	0.618	0.576
10 µM, coculture fibroblast: HMF	0.82725	0.943	0.851	0.8147	0.739	0.7044	0.65	0.626	0.605
10 µM, coculture fibroblast: HPFa	0.9133	0.877	0.819	0.764	0.72	0.708	0.642	0.604	0.522
10 µM, coculture fibroblast: HUF	0.8777	0.8209	0.7768	0.719	0.687	0.667	0.62	0.605	0.587
10 µM, coculture fibroblast: Hs5	0.759	0.99059	0.9242	0.866	0.799	0.768	0.72	0.668	0.677
10 µM, coculture fibroblast: Hs27A	0.862	0.834	0.769	0.765	0.707	0.693	0.643	0.613	0.566
10 µM, coculture fibroblast: Hs343T	0.8699	0.954	0.876	0.83	0.745	0.715	0.653	0.635	0.601
10 µM, coculture fibroblast: WS1	0.841	0.796	0.744	0.695	0.657	0.6316	0.5992	0.573	0.564
100 µM, coculture fibroblast: C12385	0.939	0.852	0.927	0.845	0.803	0.769	0.706	0.651	0.62
100 µM, coculture fibroblast: H6013	0.912	0.867	0.87	0.877	0.832	0.854	0.828	0.819	0.777
100 µM, coculture fibroblast: H6019	0.867	0.83	0.793	0.73	0.682	0.641	0.582	0.535	0.502
100 µM, coculture fibroblast: H6076	0.938	0.849	0.909	0.904	0.843	0.828	0.793	0.772	0.827
100 µM, coculture fibroblast: H6231	0.82	0.917	0.838	0.839	0.778	0.759	0.713	0.692	0.69
100 µM, coculture fibroblast: HADF	0.9149	0.888	0.8534	0.8577	0.806	0.80117	0.765	0.754	0.708
100 µM, coculture fibroblast: HCFa	0.8873	0.837	0.814	0.798	0.732	0.726	0.665	0.638	0.593
100 µM, coculture fibroblast: HCPF	0.904	0.858	0.936	0.935	0.854	0.83	0.784	0.767	0.754
100 µM, coculture fibroblast: HHSteC	0.928	0.8894	0.8642	0.85	0.81	0.816	0.7599	0.729	0.679
100 µM, coculture fibroblast: HMF	0.929	0.777	0.9215	0.9019	0.793	0.772	0.785	0.789	0.81
100 µM, coculture fibroblast: HPFa	0.945	0.908	0.8472	0.7934	0.739	0.733	0.657	0.618	0.542
100 µM, coculture fibroblast: HUF	0.9374	0.8558	0.8034	0.7334	0.6658	0.63439	0.59256	0.5488	0.518
100 µM, coculture fibroblast: Hs5	0.941	0.947	0.908	0.8899	0.8127	0.792	0.7522	0.718	0.735
100 µM, coculture fibroblast: Hs27A	0.862	0.805	0.767	0.767	0.698	0.678	0.64	0.607	0.58
100 µM, coculture fibroblast: Hs343T	0.909	0.964	0.92	0.901	0.814	0.794	0.742	0.716	0.703
100 µM, coculture fibroblast: WS1	0.908	0.8743	0.8283	0.7791	0.75	0.7	0.668	0.624	0.601
